# Results are given in words; binding and its absence hold for the method and conditions named. Binding seen in cells or lysates may run through a third protein. Here binding means that the protein was enriched with, or labelled near, the bait; the list need not be complete.
# B1: ABH1/CBP80 (protein, UniProt Q9SIU2 1-848)
# chain: MSNWKTLLLRIGEKGPEYGTSSDYKDHIETCFGVIRREIERSGDQVLPFLLQCAEQLPHKIPLYGTLIGLLNLENEDFVQKLVESVHANFQVALDSGNCNSIRILLRFMTSLLCSKVIQPASLIVVFETLLSSAATTVDEEKGNPSWQPQADFYVICILSSLPWGGSELAEQVPDEIERVLVGIQAYLSIRKNSSTSGLNFFHNGEFESSLAEKDFVEDLLDRIQSLASNGWKLESVPRPHLSFEAQLVAGKFHELRPIKCMEQPSPPSDHSRAYSGKQKHDALTRYPQRIRRLNIFPANKMEDVQPIDRFVVEEYLLDVLFYLNGCRKECASYMANLPVTFRYEYLMAETLFSQILLLPQPPFKTLYYTLVIMDLCKALPGAFPAVVAGAVRALFEKISDLDMESRTRLILWFSHHLSNFQFIWPWEEWAFVLDLPKWAPKRVFVQEILQREVRLSYWDKIKQSIENATALEELLPPKAGPNFMYSLEEGKEKTEEQQLSAELSRKVKEKQTARDMIVWIEETIYPVHGFEVTLTIVVQTLLDIGSKSFTHLVTVLERYGQVFSKLCPDNDKQVMLLSQVSTYWKNNVQMTAVAIDRMMGYRLVSNQAIVRWVFSPENVDQFHVSDQPWEILGNALNKTYNRISDLRKDISNITKNVLVAEKASANARVELEAAESKLSLVEGEPVLGENPAKMKRLKSTVEKTGEAELSLRESLEAKEALLNRALSETEVLLLLLFQSFLGVLKERLPDPTKVRSVQDLKSIGAEDDKPSAMDVDSENGNPKKSCEVGEREQWCLSTLGYLTAFTRQYASEIWPHMEKLESEVFSGEDVHPLFLQAISSALQFPLH
# B2: RBP47C (protein, UniProt Q9SX79 1-432)
# chain: MADVKIQSESESSDSHPVVDNQPPPPPPPPQQPAKEEENQPKTSPTPPPHWMRYPPTVIIPHQMMYAPPPFPPYHQYPNHHHLHHQSRGNKHQNAFNGENKTIWVGDLHHWMDEAYLNSSFASGDEREIVSVKVIRNKNNGLSEGYGFVEFESHDVADKVLREFNGTTMPNTDQPFRLNWASFSTGEKRLENNGPDLSIFVGDLSPDVSDNLLHETFSEKYPSVKAAKVVLDANTGRSKGYGFVRFGDENERTKAMTEMNGVKCSSRAMRIGPATPRKTNGYQQQGGYMPNGTLTRPEGDIMNTTIFVGGLDSSVTDEDLKQPFNEFGEIVSVKIPVGKGCGFVQFVNRPNAEEALEKLNGTVIGKQTVRLSWGRNPANKQPRDKYGNQWVDPYYGGQFYNGYGYMVPQPDPRMYPAAPYYPMYGGHQQQVS
# B3: U1-70K (protein, UniProt Q42404 1-427)
# chain: MGDSGDPFLRNPNAAVQARAKVQNRANVLQLKLMGQSHPTGLTNNLLKLFEPRPPLEYKPPPEKRKCPPYTGMAQFVSNFAEPGDPEYAPPKPEVELPSQKRERIHKLRLEKGVEKAAEDLKKYDPNNDPNATGDPYKTLFVSRLNYESSESKIKREFESYGPIKRVHLVTDQLTNKPKGYAFIEYMHTRDMKAAYKQADGQKIDGRRVLVDVERGRTVPNWRPRRLGGGLGTSRVGGGEEIVGEQQPQGRTSQSEEPSRPREEREKSREKGKERERSRELSHEQPRERSRDRPREDKHHRDRDQGGRDRDRDSRRDRDRTRDRGDRDRRDRDRGRDRTSRDHDRDRSRKKERDYEGGEYEHEGGGRSRERDAEYRGEPEETRGYYEDDQGDTDRYSHRYDKMEEDDFRYEREYKRSKRSESREYVR
# B4: SR30 (protein, UniProt Q9XFR5 1-268)
# chain: MSSRWNRTIYVGNLPGDIRKCEVEDLFYKYGPIVDIDLKIPPRPPGYAFVEFEDPRDADDAIYGRDGYDFDGCRLRVEIAHGGRRFSPSVDRYSSSYSASRAPSRRSDYRVLVTGLPPSASWQDLKDHMRKAGDVCFSEVFPDRKGMSGVVDYSNYDDMKYAIRKLDATEFRNAFSSAYIRVREYESRSVSRSPDDSKSYRSRSRSRGPSCSYSSKSRSVSPARSISPRSRPLSRSRSLYSSVSRSQSRSKSRSRSRSNSPVSPVISG
# B5: SCL30A (protein, UniProt Q9LHP2 1-262)
# chain: MRGRSYTPSPPRGYGRRGRSPSPRGRFGGSRDSDLPTSLLVRNLRHDCRQEDLRRPFEQFGPVKDIYLPRDYYTGDPRGFGFIQFMDPADAAEAKHQMDGYLLLGRELTVVFAEENRKKPTEMRTRDRGGRSNRFQDRRRSPPRYSRSPPPRRGRRSRSRSRGYNSPPAKRHQSRSVSPQDRRYEKERSYSRSPPHNGSRVRSGSPGRVKSHSRSPRRSVSPRKNRSYTPEQARSQSPVPRQSRSPTPVPRGAQNGDRSPSQ
# B6: SCL33 (protein, UniProt Q9SEU4 1-287)
# chain: MRGRSYTPSPPRGYGRRGRSPSPRGRYGGRSRDLPTSLLVRNLRHDCRQEDLRKSFEQFGPVKDIYLPRDYYTGDPRGFGFVQFMDPADAADAKHHMDGYLLLGRELTVVFAEENRKKPTEMRARERGGGRFRDRRRTPPRYYSRSRSPPPRRGRSRSRSGDYYSPPPRRHHPRSISPREERYDGRRSYSRSPASDGSRGRSLTPVRGKSRSLSPSPRRSISRSPRRSRSPSPKRNRSVSPRRSISRSPRRSRSPRRSRRSYTPEPARSRSQSPHGGQYDEDRSPSQ
# B7: SERRATE (SE) (protein, UniProt Q9ZVD0 1-720)
# chain: MADVNLPPSDSVDNRLPEKSTSSSPPPPPPSSSLPQQEQEQDQQQLPLRRERDSRERRDERDIERPPPNRRERDRSPLPPPRRDYKRRPSLSPPPPYRDRRHSPPQRRSPPQKRYRRDDNGYDGRRGSPRGGYGPPDRRFGYDHGGGYDREMGGRPGYGDERPHGRFMGRYQDWEGGRGGYGDASNSGNPQRDGLMSYKQFIQELEDDILPSEAERRYQEYKSEYITTQKRAFFNTHKEEDWLKNKYHPTNLLSVIERRNDLAQKVAKDFLLDLQSGTLDLGPAVTALNKSGRTSEPNSEDEAAGVGKRKRHGMGGAKENELLSAAPKAPSFTSDPKRILTDVEQTQALVRKLDSEKKIEENVLQGSETEKSGREKLHSGSTGPVVIIRGLTSVKGLEGVELLDTLVTYLWRVHGLDYYGKVETNEAKGLRHVRAEGKVSDAKGDENESKFDSHWQERLKGQDPLEVMAAKEKIDAAATEALDPHVRKIRDEKYGWKYGCGAKGCTKLFHAAEFVYKHLKLKHTELVTELTTKVREELYFQNYMNDPNAPGGQPATQQSGPRDRPIRRKPSMENRLRDDRGGRRERDGRANGNDRNDRSEDQQRGDNDGGNPGEVGYDAFGGQGGVHVPPFLSDINPPPMLMPVPGAGPLGPFVPAPPEVAMQMFRDPSGPNPPFEGSGRGGPAPFLLSPAFRQDPRRLRSYQDLDAPEEEVTVIDYRSL
# Biological target: LUC7A-YFP (LETHAL UNLESS CBC 7 A, AthLUC7A) (Arabidopsis thaliana)
# Test: affinity purification with mass spectrometry
row,Binder,binding
1,B1,binds
2,B2,binds
3,B3,binds
4,B4,binds
5,B5,binds
6,B6,binds
7,B7,binds

# Source: doi:10.1101/150805
